Test results reported in US20260356901A1, “ONCOLYTIC PEPTIDES” (The Johns Hopkins University, priority 2023, published 2026).
At least one peptide structure holds a part that was inferred or is arguable (an end, a ring closure or a residue). Ends that are not written are not given here.

What was measured:
[1] = tested on: LOX IMVI; assay: NCI-60 screening, GI50, LOX IMVI; type: cell-based, human
[2] = tested on: HT29 human colorectal tumors; assay: HT29 human colorectal tumors in immunodeficient mice, NF27 treatment; type: in vivo, human tumors in athymic, nude mice
[3] = tested on: CT26 murine colorectal tumors; assay: CT26 murine colorectal tumors in mice, NF27 treatment; type: in vivo, mouse
[4] = tested on: 59 different cell lines; assay: NCI-60 screening, GI50; type: cell-based, human; details: 48 hours
[5] = tested on: 4T1 cells; assay: LDH release assay (CyQUANT) in 4T1 cells; type: cell-based, murine; details: for LDH release, helical and loop region peptides: 6 hours (FIG. 5A)
Method: FIG. 3A is a graph of cell viability of 4T1 murine triple negative breast cancer cells (TNBC) after 100 μM or 20 μM CKS1 treatment measured by real-time cell analyzer (RTCA). Means±SEM, representative of N=3. FIG. 3B is a graph of lactate dehydrogenase (LDH) release in 4T1 cells pre-treated with 50 μM pan-caspase inhibitor Z-VAD for 30 minutes or 50 μM RIPK1 inhibitor Nec-1s for 30 minutes then treated with 100 μM CKS1 for 6 hours. LDH release in the supernatant was measured by the CyQUANT LDH cytotoxicity assay. Means±SEM, N=3, Dunnett's test (***p<0.005). FIGS. 3C-3G are graphs of LDH release in human osteosarcoma U2OS cells, murine fibrosarcoma MCA205 cells, murine colon carcinoma CT26 cells, murine normal NIH/3T3 fibroblasts, and HUVECs, respectively, treated with the indicated concentration of CKS1 for 6 hours. The release of LDH in the supernatant was measured and was normalized to the amount of LDH released from cells treated with lysis buffer. Means±SEM, N=3, Dunnett's test (**p<0.01, ***p<0.005). FIG. 3H is a graph of the incorporation of BrdU in HUVECs treated with CKS1. Means±SEM, N=3, Dunnett's test (**p<0.01, ***p<0.005).
FIG. 5A is a graph of the release of LDH in the supernatant measured after treating 4T1 cells with 100 μM of the indicated peptides for 6 hours. Means±SEM, N=3, Dunnett's test (***p<0.005). FIG. 5B is a wheel representation of the helical region of CKS1 and the E19K mutant. Green amino acids represent the hydrophobic amino acids, light blue amino acids represent the neutrally charged amino acids, dark blue amino acids represent the negatively charged amino acids, and the red amino acids represent the positively charged amino acids. […] Means±SEM, N=3, one-way ANOVA with Tukey-Kramer test.
FIG. 8 is a chart of LDH release from 4T1 cells treated with peptides. LDH is an indicator of necrotic cell death; higher values indicate increased cancer cell death. For the corresponding sequences, please refer to Table 1.
LDH assay 1.5×10^4 cells were seeded in a 96 well plate and incubated overnight. The cells were washed once, and the medium was replaced with serum free media. Cells were treated for the indicated time and concentration. CyQUANT LDH cytotoxicity assay (Invitrogen, Carlsbad, CA) was used following the manufacturer's instructions.
To determine whether CKS1 functions as an oncolytic peptide, the cell viability of 4T1 murine breast cancer cells was observed after CKS1 treatment using xCELLigence Real-Time Cell Analyzer (Agilent). In this method, the binding of cells to gold electrodes is detected as electrical impedance and graphed as arbitrary units of cell index in real time. […] The release of lactate dehydrogenase (LDH) was also quantified in the culture media after CKS1 treatment. LDH is a cytosolic enzyme which is released outside the cells when the cell membrane is damaged.
To examine whether the α-helix plays a role in oncolytic activity, two peptides were produced: one that only contains the helical region (IVKKIIEKMLNS; SEQ ID NO: 42) and another that contains the loop region (NGRKACLNPASP; SEQ ID NO: 43). LDH release was measured from 4T1 cells upon treatment with the two peptides. […] To further analyze the structure-activity relationship and potentially develop a peptide with higher activity, an E19K mutant peptide was produced. The helical region of CKS1 and the E19K mutant is shown as a helical wheel representation (FIG. 5B). The original CKS1 has a negatively charged glutamic acid on the hydrophilic side. Replacing the glutamic acid with a positively charged lysine will make the overall charge of CKS1 more positively charged with a concentrated positive charge on one side of the helix, which may display higher affinity to the cell surface of cancer cells, resulting in higher oncolytic activity.

[6] = tested on: 4T1 tumors; assay: 4T1 tumor model in Balb/c mice, intratumoral treatment; type: in vivo, mouse
[7] = tested on: caspase-3 in 4T1 cells; assay: Caspase-3 cleavage/activity (immunoblotting); type: cell-based, murine; details: over the course of 24 hours
[8] = tested on: HUVECs; assay: BrdU incorporation (cell proliferation) in HUVECs; type: cell-based, human
[9] = tested on: 4T1 cells or CT26 cells; assay: Quantification of ATP release; type: cell-based, murine; details: 20 μM or 100 μM CKS1, 6 hours
[10] = tested on: 4T1 cells; assay: Cell morphology and electron microscopy; type: cell-based, murine
[11] = tested on: CT26 tumors; assay: CT26 tumor model in mice, CKS1 treatment; type: in vivo, mouse
[12] = tested on: 4T1 cells or CT26 cells; assay: Quantification of HMGB-1 release (ELISA); type: cell-based, murine; details: 100 μM CKS1, 6 hours
[13] = tested on: 4T1 murine breast cancer cells; assay: Real-time cell viability assay (xCELLigence RTCA); type: cell-based
[14] = 40 mg/kg intratumorally every other day
[15] = 40 mg/kg daily intratumoral from day 7

## NGRKAKLNPASIVKKIIKKILKS [NF27]
[1]; 48 hours, LOX IMVI, read-out: GI50 (concentration required to inhibit 50% of cell growth)
  GI50: 26 µM
[1]; LOX IMVI compared to the other cell lines
  resistance of cell line to NF27: significantly resistant
[2]; [14]
  HT29 tumor growth: growth of all tumors was inhibited
  HT29 tumor necrosis: going necrotic
[2]; HT29, 40 mg/kg intratumorally every other day, during the treatment
  tumor eradication: 8 out of 10
[3]; 40 mg/kg daily
  CT26 tumor growth: inhibited tumor growth in all tumors
[3]; CT26, 40 mg/kg daily
  tumor eradication: 6 out of 10
[4]; 58 of 59 cell lines, read-out: GI50 (concentration required to inhibit 50% of cell growth)
  GI50: < 10 µM
[4]; among 59 cell lines
  number of cell lines with GI50 of less than 10 μM: 58 cell lines

## NGRKACLNPASPIVKKIIKKMLNS [NF04]
[5]; 4T1 cells, 6 hours, higher concentration (FIG. 5C)
  LDH release vs CKS1, higher concentration: equivalent release of LDH
[5]; 4T1 cells, 6 hours, lower concentrations (FIG. 5C)
  LDH release vs CKS1, lower concentrations: significantly higher release of LDH

## NGRKACLNPASP [SEQ ID NO: 43, NGRKACLNPASP]
[5]; 4T1 cells, 100 μM
  LDH release, helical and loop region peptides: did not

## NGRKACLNPASIVKKIIKKILKS [NF10]
[5]; 4T1 cells (FIG. 8)
  concentration at which LDH release was induced: 5 µM

## IVKKIIEKMLNS [SEQ ID NO: 42, IVKKIIEKMLNS]
[5]; 4T1 cells, 100 μM
  LDH release, helical and loop region peptides: induced LDH release

## NGRKACLNPASPIVKKIIEKMLNS [CKS1]
[6]; 40 mg/kg daily intratumoral
  sensitivity of 4T1 tumors: relatively modest response
[6]; [15]
  growth of 4T1 tumors: inhibited
[6]; intratumoral, 24 hours after treatment
  tumor necrosis: Necrosis was observed
[7]
  apoptosis (caspase-3 activity): cells underwent apoptosis
[8]
  cell proliferation (BrdU incorporation): significantly attenuated cell proliferation
[9]
  ATP release: observed
[10]; 100 μM, 6 hours (FIGS. 4A-4D)
  cell morphology change: shrinkage of the cell volume, rough texture of the cell surface, and the release of cellular content
[10]; 30 minutes
  cell membrane by electron microscopy: disrupted
  nuclear envelope: intact
[10]; 6 hours
  cell morphology by electron microscopy: cells with an apoptotic morphology were observed
  nucleus and chromatin: the nucleus collapsed and the chromatin condensed
[5]; 4T1 cells, 100 μM, 6 hours (FIG. 3B)
  LDH release: released significant amounts of LDH
[11]; 40 mg/kg daily intratumoral
  sensitivity of CT26 tumors: highly sensitive
[11]; [15]
  growth of CT26 tumors: inhibited
[12]
  HMGB-1 release: observed
[13]; after CKS1 treatment, 100 μM or 20 μM (FIG. 3A)
  time to cell death (reduction in cell index): ≤ 1 h
[13]; reduction in cell index, 100 μM or 20 μM
  cell death dose dependence: dose dependent

## NGRKAKKNAKKVKKIIKKIKKI [NF22]
[5]; 4T1 cells (FIG. 8)
  cell-killing capability (LDH release): except for NF22
